Taken from: PubChem BioAssay AID1259405 (NCATS, 2018)
The deposit covers about 50,000 reagents; below is a part drawn at random. Of all reagents, about 4,000 (8%) got an active call. 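Mouse siRNA library applied to hamster cells; one well for each siRNA.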 Entries without a mark were called inactive. No sequences are given here.

Assay: 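Knock-downs that lift recombinant protein yield in hamster ovary cells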 (primary screen)
Cells: Chinese hamster CHO-K1 ovary cells with stable secreted eGFP expression
Reagents: single siRNA against mouse genes, 0.8 pmol siRNA per well (2 µl of 400 nM stock)
Timing: 3 days
Read-out: 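Percent of the per-plate non-targeting control median for intracellular GFP per well by laser scanning cytometry and for cell viability by ATP luminescence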
Reading the numbers: GFP, % of control: higher = more GFP per well, higher productivity; viability (ATP), % of control: higher = more viable cells (more ATP)
Hit rule: 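a knock-down is called active if GFP reaches 120% or more of non-targeting control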

no.	gene symbol	PubChem SID	GFP, % of control	viability (ATP), % of control
1	Or4f61	SID363554394	162 (active)	65.2
2	Or4f61	SID363567841	90.6	61.9
3	Or4f61	SID363585198	47.6	79.8
4	Dhh	SID363541459	90.7	85.3
5	Dhh	SID363556086	64.9	51.9
6	Dhh	SID363566375	117	71.5
7	Napsa	SID363574262	77.5	102
8	Napsa	SID363575318	51.3	60.9
9	Napsa	SID363579894	61.9	62.8
10	Mcpt1	SID363547454	87.1	107
11	Mcpt1	SID363558223	92.2	51.8
12	Mcpt1	SID363559981	92.6	86.4
13	Skint2	SID363542759	76.8	88.9
14	Skint2	SID363546276	131 (active)	78.9
15	Skint2	SID363548032	71	91.2
16	Glmp	SID363540546	111	84.9
17	Glmp	SID363542997	104	75.1
18	Glmp	SID363552490	30.4	45.3
19	Ms4a3	SID363544129	94.4	39.7
20	Ms4a3	SID363550457	85.6	81.3
21	Ms4a3	SID363557006	63.8	108
22	Rps18	SID363554083	48	39.9
23	Rps18	SID363562040	153 (active)	75.6
24	Rps18	SID363565778	92.7	55.1
25	Ube2v1	SID363541699	78.6	76.5
26	Ube2v1	SID363553291	57.5	40
27	Ube2v1	SID363566615	63.2	55.1
28	Zfp960	SID363555228	74.3	49.5
29	Zfp960	SID363563889	110	67
30	Zfp960	SID363587435	77.3	67.7
31	BC061195	SID363540779	115	133
32	BC061195	SID363543230	68.3	80.3
33	BC061195	SID363552723	46.3	21.8
34	Sh3bp4	SID363545013	48	61.8
35	Sh3bp4	SID363551341	87	94.5
36	Sh3bp4	SID363557890	50.4	72.3
37	Qtrt2	SID363545220	87.5	80
38	Qtrt2	SID363548733	66.4	58.5
39	Qtrt2	SID363562539	45	48
40	Vps37d	SID363556904	71.2	83.6
41	Vps37d	SID363563808	99.7	93.7
42	Vps37d	SID363587354	72.6	74.6
43	Cndp2	SID363574581	59.8	86.9
44	Cndp2	SID363575637	41.8	39.5
45	Cndp2	SID363580213	62.6	69.6
46	Garin5b	SID363542338	73.2	81
47	Garin5b	SID363551829	96.2	76.6
48	Garin5b	SID363559434	92	103
49	Esco1	SID363545249	74.2	77.8
50	Esco1	SID363548762	75.4	58.4
51	Esco1	SID363562568	81.8	80.4
52	4930544M13Rik	SID363542389	45.1	54
53	4930544M13Rik	SID363551880	85.1	61.6
54	4930544M13Rik	SID363559485	96.5	97.5
55	Or10d4c	SID363545068	88	47.5
56	Or10d4c	SID363551396	38.9	58.1
57	Or10d4c	SID363557945	69.7	88.8

6 entries from above, arranged by “GFP, % of control”, descending:
gene symbol	PubChem SID	GFP, % of control	viability (ATP), % of control
Vps37d	SID363563808	99.7	93.7
Qtrt2	SID363545220	87.5	80
Vps37d	SID363587354	72.6	74.6
Vps37d	SID363556904	71.2	83.6
Qtrt2	SID363548733	66.4	58.5
Qtrt2	SID363562539	45	48
